Data as given in the supplement of paper PMC12823440, “Inhibitors supercharge kinase turnover through native proteolytic circuits” (Nature, 2025).
Where a name gives a salt, the structure may show the parent alone. The list shows a part of the results. The calls rarely recur for the same compound in another form.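 Kinases, fused to nanoluciferase, were expressed in K562 cells; luminescence was measured every 4 h from 2 to 18 h as percent of control (DMSO = 100%, positive control = 0%). A time point is decreased if signal falls significantly (2 sigma). Hits were called by the authors by a rule that is not shown; the count of time points alone does not decide it.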

Sequences of proteins named here, by UniProt entry; tags and fusion partners are left off. A change or cut given only in a name is not applied to a line headed by its entry.
UniProt Q9Y616: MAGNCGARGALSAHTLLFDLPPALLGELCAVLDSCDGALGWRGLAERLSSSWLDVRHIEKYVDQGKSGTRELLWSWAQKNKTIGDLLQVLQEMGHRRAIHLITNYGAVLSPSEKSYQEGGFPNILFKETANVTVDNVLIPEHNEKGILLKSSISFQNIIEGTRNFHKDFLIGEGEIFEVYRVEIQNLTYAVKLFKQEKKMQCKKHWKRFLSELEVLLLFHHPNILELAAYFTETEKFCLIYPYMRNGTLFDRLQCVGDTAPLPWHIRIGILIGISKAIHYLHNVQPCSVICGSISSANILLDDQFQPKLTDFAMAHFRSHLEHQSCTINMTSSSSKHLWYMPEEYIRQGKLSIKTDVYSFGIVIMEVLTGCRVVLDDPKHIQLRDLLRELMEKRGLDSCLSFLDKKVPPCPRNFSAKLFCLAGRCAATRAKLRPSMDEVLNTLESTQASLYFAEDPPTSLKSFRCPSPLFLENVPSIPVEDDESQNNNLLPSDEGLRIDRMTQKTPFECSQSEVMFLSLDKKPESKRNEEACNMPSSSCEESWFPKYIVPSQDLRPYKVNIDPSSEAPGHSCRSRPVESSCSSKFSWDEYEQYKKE
UniProt P23458: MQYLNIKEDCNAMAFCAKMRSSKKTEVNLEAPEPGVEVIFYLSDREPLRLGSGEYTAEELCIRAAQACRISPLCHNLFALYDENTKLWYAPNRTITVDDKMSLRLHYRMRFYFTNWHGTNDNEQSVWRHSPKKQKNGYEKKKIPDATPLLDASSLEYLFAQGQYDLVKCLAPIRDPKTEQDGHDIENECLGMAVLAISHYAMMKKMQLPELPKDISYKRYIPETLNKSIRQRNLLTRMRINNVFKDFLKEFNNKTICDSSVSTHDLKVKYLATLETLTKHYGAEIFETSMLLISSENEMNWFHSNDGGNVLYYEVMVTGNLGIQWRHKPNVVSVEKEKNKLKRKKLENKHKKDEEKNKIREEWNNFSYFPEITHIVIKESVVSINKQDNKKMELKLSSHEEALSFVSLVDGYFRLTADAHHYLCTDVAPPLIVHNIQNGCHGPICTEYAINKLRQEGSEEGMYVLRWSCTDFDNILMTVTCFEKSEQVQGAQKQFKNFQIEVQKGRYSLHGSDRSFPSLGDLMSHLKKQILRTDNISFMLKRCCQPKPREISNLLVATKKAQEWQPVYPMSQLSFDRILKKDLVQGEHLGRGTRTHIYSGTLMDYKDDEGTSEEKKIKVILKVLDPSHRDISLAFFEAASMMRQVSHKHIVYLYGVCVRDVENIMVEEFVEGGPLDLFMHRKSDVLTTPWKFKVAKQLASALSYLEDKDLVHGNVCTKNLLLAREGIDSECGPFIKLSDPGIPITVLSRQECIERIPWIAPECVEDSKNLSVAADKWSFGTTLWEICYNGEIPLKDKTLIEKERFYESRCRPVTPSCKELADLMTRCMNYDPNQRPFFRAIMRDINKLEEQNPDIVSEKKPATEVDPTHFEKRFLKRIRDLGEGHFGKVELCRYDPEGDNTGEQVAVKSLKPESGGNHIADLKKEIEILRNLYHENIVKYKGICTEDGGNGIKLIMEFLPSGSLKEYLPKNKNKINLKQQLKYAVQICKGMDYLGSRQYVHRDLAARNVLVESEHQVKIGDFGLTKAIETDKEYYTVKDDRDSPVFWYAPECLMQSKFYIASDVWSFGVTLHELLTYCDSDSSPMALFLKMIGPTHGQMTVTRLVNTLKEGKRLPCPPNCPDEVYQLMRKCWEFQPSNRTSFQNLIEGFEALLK
UniProt P53671: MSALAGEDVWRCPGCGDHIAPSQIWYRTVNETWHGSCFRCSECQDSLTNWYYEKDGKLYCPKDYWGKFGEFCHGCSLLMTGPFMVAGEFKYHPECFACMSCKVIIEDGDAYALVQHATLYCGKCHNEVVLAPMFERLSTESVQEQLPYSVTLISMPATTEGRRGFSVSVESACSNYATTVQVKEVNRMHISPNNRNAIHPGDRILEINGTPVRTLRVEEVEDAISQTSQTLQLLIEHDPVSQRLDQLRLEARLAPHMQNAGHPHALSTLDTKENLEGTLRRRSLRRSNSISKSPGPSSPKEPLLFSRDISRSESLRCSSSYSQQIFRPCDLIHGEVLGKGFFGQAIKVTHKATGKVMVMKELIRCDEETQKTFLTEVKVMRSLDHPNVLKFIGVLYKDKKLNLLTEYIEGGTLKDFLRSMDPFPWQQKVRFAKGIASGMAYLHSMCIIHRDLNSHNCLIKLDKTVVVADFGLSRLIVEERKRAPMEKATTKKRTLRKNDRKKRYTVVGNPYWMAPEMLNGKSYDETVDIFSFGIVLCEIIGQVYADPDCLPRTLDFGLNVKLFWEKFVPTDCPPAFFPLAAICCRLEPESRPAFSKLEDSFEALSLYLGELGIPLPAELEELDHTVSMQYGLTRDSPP
UniProt P07948: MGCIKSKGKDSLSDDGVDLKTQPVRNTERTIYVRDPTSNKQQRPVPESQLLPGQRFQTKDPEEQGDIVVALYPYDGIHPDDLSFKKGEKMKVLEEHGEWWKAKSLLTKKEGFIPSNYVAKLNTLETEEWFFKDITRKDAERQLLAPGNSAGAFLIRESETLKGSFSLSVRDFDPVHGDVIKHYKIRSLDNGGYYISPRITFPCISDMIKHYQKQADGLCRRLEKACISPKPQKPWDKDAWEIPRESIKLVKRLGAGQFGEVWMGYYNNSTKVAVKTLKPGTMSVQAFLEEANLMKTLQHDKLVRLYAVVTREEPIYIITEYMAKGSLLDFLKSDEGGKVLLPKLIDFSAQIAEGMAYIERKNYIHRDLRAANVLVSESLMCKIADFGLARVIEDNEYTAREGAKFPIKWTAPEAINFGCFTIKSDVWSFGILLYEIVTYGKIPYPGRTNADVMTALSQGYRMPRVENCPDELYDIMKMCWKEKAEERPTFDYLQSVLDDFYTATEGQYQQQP
UniProt P28482, whole entry: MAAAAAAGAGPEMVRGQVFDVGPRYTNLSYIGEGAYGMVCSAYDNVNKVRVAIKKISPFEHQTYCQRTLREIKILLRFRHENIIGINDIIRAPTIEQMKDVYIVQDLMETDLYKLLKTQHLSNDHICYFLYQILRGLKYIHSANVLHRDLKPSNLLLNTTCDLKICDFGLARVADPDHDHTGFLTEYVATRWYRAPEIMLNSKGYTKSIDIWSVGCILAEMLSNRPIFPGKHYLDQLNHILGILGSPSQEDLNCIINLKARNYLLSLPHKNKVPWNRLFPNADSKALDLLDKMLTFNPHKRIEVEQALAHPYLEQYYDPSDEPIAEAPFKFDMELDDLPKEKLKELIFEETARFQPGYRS
UniProt Q9BUB5: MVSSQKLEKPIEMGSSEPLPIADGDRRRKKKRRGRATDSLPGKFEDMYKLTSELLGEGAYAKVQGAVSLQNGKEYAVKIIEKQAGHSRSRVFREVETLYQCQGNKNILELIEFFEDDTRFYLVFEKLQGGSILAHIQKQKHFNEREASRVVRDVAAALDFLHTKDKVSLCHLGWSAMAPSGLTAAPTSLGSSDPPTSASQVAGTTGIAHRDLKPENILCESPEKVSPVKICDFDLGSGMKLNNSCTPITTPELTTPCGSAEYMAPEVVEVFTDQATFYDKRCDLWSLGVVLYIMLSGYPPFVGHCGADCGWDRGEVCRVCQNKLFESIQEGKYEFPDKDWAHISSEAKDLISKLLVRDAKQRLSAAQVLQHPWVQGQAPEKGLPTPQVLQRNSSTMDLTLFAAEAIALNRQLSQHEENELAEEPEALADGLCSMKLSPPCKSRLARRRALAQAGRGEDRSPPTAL
UniProt Q16620, whole entry, looked up: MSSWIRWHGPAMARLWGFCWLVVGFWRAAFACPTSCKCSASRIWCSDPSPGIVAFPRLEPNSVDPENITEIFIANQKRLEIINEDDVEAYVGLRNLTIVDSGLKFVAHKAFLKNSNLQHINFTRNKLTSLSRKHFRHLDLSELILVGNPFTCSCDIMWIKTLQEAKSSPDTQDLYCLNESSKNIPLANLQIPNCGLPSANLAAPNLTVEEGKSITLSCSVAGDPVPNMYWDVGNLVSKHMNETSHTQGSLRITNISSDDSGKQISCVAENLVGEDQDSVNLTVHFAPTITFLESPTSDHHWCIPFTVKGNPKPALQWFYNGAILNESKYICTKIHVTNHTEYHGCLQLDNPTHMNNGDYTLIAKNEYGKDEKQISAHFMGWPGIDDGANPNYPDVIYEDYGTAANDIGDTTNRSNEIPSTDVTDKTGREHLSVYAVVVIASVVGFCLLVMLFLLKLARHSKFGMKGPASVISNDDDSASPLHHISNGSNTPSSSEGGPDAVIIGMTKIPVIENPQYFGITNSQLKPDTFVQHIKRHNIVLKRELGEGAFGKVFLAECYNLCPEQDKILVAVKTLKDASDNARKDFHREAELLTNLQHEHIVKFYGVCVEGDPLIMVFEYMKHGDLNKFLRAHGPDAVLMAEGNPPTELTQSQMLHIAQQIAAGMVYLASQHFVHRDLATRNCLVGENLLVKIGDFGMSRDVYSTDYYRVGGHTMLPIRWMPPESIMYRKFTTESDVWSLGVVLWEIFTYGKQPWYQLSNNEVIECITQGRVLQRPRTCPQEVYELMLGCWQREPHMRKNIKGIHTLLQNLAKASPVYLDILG
UniProt Q96KB5: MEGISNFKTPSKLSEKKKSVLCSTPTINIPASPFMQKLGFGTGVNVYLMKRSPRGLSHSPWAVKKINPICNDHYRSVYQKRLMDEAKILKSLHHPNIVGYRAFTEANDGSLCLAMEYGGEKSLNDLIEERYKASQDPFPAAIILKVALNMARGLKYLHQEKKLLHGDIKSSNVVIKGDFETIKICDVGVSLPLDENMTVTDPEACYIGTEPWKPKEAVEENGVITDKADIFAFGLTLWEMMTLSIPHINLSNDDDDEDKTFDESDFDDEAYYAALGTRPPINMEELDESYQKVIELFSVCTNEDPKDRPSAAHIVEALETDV
UniProt P09619, whole entry: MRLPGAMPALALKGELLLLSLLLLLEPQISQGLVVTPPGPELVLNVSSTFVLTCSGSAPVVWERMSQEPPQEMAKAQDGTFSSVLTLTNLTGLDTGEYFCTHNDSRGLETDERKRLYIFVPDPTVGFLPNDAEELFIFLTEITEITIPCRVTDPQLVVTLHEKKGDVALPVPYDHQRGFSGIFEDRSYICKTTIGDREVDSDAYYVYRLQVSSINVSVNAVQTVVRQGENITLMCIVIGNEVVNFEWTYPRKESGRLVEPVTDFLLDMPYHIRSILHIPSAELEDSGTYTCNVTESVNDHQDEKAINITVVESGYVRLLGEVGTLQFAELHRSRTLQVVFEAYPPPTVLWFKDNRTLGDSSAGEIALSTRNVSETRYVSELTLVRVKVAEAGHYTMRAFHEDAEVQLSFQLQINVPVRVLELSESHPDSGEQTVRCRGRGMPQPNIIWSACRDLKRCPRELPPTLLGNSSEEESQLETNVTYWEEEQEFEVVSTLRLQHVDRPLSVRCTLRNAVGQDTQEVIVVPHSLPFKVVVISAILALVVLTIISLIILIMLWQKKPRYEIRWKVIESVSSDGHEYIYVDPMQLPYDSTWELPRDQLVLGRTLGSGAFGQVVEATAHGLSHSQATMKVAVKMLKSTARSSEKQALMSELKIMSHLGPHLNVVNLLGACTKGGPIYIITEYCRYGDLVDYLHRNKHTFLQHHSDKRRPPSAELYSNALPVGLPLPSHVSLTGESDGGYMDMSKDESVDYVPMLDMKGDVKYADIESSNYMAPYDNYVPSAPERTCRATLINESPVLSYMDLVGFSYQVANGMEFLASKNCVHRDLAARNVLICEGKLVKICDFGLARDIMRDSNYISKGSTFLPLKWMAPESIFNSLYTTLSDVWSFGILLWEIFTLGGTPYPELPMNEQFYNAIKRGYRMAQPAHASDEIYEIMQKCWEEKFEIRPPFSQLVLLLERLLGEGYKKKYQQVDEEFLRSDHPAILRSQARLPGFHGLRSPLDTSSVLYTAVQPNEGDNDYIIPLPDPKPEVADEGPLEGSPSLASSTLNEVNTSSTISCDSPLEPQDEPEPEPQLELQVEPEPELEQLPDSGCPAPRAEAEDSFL
UniProt Q15118, whole entry, looked up: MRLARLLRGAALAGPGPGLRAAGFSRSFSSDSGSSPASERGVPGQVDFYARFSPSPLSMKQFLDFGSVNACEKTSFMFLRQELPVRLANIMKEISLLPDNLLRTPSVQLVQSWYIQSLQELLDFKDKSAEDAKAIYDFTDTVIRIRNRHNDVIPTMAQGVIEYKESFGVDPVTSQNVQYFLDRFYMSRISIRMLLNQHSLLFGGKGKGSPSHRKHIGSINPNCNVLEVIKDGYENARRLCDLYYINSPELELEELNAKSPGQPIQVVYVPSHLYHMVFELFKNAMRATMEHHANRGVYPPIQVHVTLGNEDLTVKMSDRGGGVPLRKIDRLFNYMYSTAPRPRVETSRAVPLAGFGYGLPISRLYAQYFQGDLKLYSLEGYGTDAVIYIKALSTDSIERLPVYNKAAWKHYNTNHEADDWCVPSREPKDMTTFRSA

Experiments:
Assay in all cases: kinase-Nluc reporter destabilization hit call (1 = scored as downregulated) (binary); higher = compound decreases kinase abundance
Conditions in all cases: K562; 2-18 h
IRAK3 = IRAK3 (UniProt Q9Y616)
JAK1 = JAK1 (UniProt P23458)
LCK = LCK (UniProt P06239)
LIMK1 = LIMK1 (UniProt P53667)
LIMK2 = LIMK2 (UniProt P53671)
LMTK2 = LMTK2 (UniProt Q8IWU2)
LYN = LYN (UniProt P07948)
MAP2K1 = MAP2K1 (UniProt Q02750)
MAP2K2 = MAP2K2 (UniProt P36507)
MAP4K2 = MAP4K2 (UniProt Q12851)
MAPK1 = MAPK1 (UniProt P28482)
MAPK4 = MAPK4 (UniProt P31152)
MAPKAPK2 = MAPKAPK2 (UniProt P49137)
MKNK1 = MKNK1 (UniProt Q9BUB5)
NTRK2 = NTRK2 (UniProt Q16620)
NTRK3 = NTRK3 (UniProt Q16288)
PAK4 = PAK4 (UniProt O96013)
PBK = PBK (UniProt Q96KB5)
PDGFRB = PDGFRB (UniProt P09619)
PDK1 = PDK1 (UniProt Q15118)

Measured: kinase-Nluc reporter destabilization hit call

N#CC(c1ccnc(OCc2ccc(CN3CCOCC3)cc2)n1)c1nc2ccccc2s1 (stereo not given) [Bentamapimod] (2.5 µM)
inactive: IRAK3 = 0 | JAK1 = 0 | LCK 0 | LIMK1 = 0 | LIMK2 = 0 | LMTK2 = 0 | LYN 0 | MAP2K1 = 0 | MAP2K2 = 0 | MAP4K2 = 0 | MAPK1 = 0 | MAPK4 = 0 | MAPKAPK2 = 0 | MKNK1 = 0 | NTRK2 = 0 | NTRK3 = 0 | PAK4 = 0 | PBK 0 | PDGFRB 0 | PDK1 = 0

O=C(Nc1cccc(C(F)(F)F)c1)c1cccc2cc(Oc3cc(CO)ncn3)ccc12 (10 µM)
inactive: IRAK3 = 0 | JAK1 = 0 | LCK 0 | LIMK1 = 0 | LIMK2 = 0 | LMTK2 = 0 | LYN 0 | MAP2K1 = 0 | MAP2K2 = 0 | MAP4K2 = 0 | MAPK1 = 0 | MAPK4 = 0 | MAPKAPK2 = 0 | MKNK1 = 0 | NTRK2 = 0 | NTRK3 = 0 | PAK4 = 0 | PBK 0 | PDGFRB 0 | PDK1 = 0

O=C1NC(=O)/C(=C/c2ccc3nccc(-c4ccncc4)c3c2)S1 (10 µM)
inactive: IRAK3 = 0 | JAK1 = 0 | LCK 0 | LIMK1 = 0 | LIMK2 = 0 | LMTK2 = 0 | LYN 0 | MAP2K1 = 0 | MAP2K2 = 0 | MAP4K2 = 0 | MAPK1 = 0 | MAPK4 = 0 | MAPKAPK2 = 0 | MKNK1 = 0 | NTRK2 = 0 | NTRK3 = 0 | PAK4 = 0 | PBK 0 | PDGFRB 0 | PDK1 = 0

CN(C)CCC=C1c2ccccc2CCc2ccccc21 [Amitriptyline (hydrochloride)] (2.5 µM)
inactive: IRAK3 = 0 | JAK1 = 0 | LCK 0 | LIMK1 = 0 | LIMK2 = 0 | LMTK2 = 0 | LYN 0 | MAP2K1 = 0 | MAP2K2 = 0 | MAP4K2 = 0 | MAPK1 = 0 | MAPK4 = 0 | MAPKAPK2 = 0 | MKNK1 = 0 | NTRK2 = 0 | NTRK3 = 0 | PAK4 = 0 | PBK 0 | PDGFRB 0 | PDK1 = 0

O=[N+]([O-])c1ccc2c(c1)S(=O)(=O)C=C2 [Stattic] (2.5 µM)
inactive: IRAK3 = 0 | JAK1 = 0 | LCK 0 | LIMK1 = 0 | LIMK2 = 0 | LMTK2 = 0 | LYN 0 | MAP2K1 = 0 | MAP2K2 = 0 | MAP4K2 = 0 | MAPK1 = 0 | MAPK4 = 0 | MAPKAPK2 = 0 | MKNK1 = 0 | NTRK2 = 0 | NTRK3 = 0 | PAK4 = 0 | PBK 0 | PDGFRB 0 | PDK1 = 0

Cc1cc(C)nc(NS(=O)(=O)c2ccc(NC(=S)NC(=O)COc3ccc(Br)cc3Cl)cc2)n1 (2.5 µM)
inactive: IRAK3 = 0 | JAK1 = 0 | LCK 0 | LIMK1 = 0 | LIMK2 = 0 | LMTK2 = 0 | LYN 0 | MAP2K1 = 0 | MAP2K2 = 0 | MAP4K2 = 0 | MAPK1 = 0 | MAPK4 = 0 | MAPKAPK2 = 0 | MKNK1 = 0 | NTRK2 = 0 | NTRK3 = 0 | PAK4 = 0 | PBK 0 | PDGFRB 0 | PDK1 = 0

CS(=O)(=O)c1ccc(-c2cnc(N)c(-c3ccc(C(F)(F)F)nc3)c2)cc1 (10 µM)
inactive: IRAK3 = 0 | JAK1 = 0 | LCK 0 | LIMK1 = 0 | LIMK2 = 0 | LMTK2 = 0 | LYN 0 | MAP2K1 = 0 | MAP2K2 = 0 | MAP4K2 = 0 | MAPK1 = 0 | MAPK4 = 0 | MAPKAPK2 = 0 | MKNK1 = 0 | NTRK2 = 0 | NTRK3 = 0 | PAK4 = 0 | PBK 0 | PDGFRB 0 | PDK1 = 0

C=CCc1ccc(O)c(-c2ccc(O)c(CC=C)c2)c1 [Honokiol] (10 µM)
inactive: IRAK3 = 0 | JAK1 = 0 | LCK 0 | LIMK1 = 0 | LIMK2 = 0 | LMTK2 = 0 | LYN 0 | MAP2K1 = 0 | MAP2K2 = 0 | MAP4K2 = 0 | MAPK1 = 0 | MAPK4 = 0 | MAPKAPK2 = 0 | MKNK1 = 0 | NTRK2 = 0 | NTRK3 = 0 | PAK4 = 0 | PBK 0 | PDGFRB 0 | PDK1 = 0

O=C(O)c1cc(N(Cc2ccccc2O)Cc2ccccc2O)ccc1O [Lavendustin B] (10 µM)
inactive: IRAK3 = 0 | JAK1 = 0 | LCK 0 | LIMK1 = 0 | LIMK2 = 0 | LMTK2 = 0 | LYN 0 | MAP2K1 = 0 | MAP2K2 = 0 | MAP4K2 = 0 | MAPK1 = 0 | MAPK4 = 0 | MAPKAPK2 = 0 | MKNK1 = 0 | NTRK2 = 0 | NTRK3 = 0 | PAK4 = 0 | PBK 0 | PDGFRB 0 | PDK1 = 0

Cc1cc(Nc2ncnc3ccc(-c4ccc(CNCCS(C)(=O)=O)o4)cc23)ccc1Oc1ccn2ncnc2c1 [ARRY-380 (analog )] (2.5 µM)
inactive: IRAK3 = 0 | JAK1 = 0 | LCK 0 | LIMK1 = 0 | LIMK2 = 0 | LMTK2 = 0 | LYN 0 | MAP2K1 = 0 | MAP2K2 = 0 | MAP4K2 = 0 | MAPK1 = 0 | MAPK4 = 0 | MAPKAPK2 = 0 | MKNK1 = 0 | NTRK2 = 0 | NTRK3 = 0 | PAK4 = 0 | PBK 0 | PDGFRB 0 | PDK1 = 0

Nc1n[nH]c2nc(-c3ccc(NS(=O)(=O)c4cc(Cl)ccc4F)cc3)cnc12 (10 µM)
inactive: IRAK3 = 0 | JAK1 = 0 | LCK 0 | LIMK1 = 0 | LIMK2 = 0 | LMTK2 = 0 | LYN 0 | MAP2K1 = 0 | MAP2K2 = 0 | MAP4K2 = 0 | MAPK1 = 0 | MAPK4 = 0 | MAPKAPK2 = 0 | MKNK1 = 0 | NTRK2 = 0 | NTRK3 = 0 | PAK4 = 0 | PBK 0 | PDGFRB 0 | PDK1 = 0

Cn1cc(C2=C(c3cn(CCCSC(=N)N)c4ccccc34)C(=O)NC2=O)c2ccccc21 [Ro 31-8220 (mesylate)] (2.5 µM)
inactive: IRAK3 = 0 | JAK1 = 0 | LCK 0 | LIMK1 = 0 | LIMK2 = 0 | LMTK2 = 0 | LYN 0 | MAP2K1 = 0 | MAP2K2 = 0 | MAP4K2 = 0 | MAPK1 = 0 | MAPK4 = 0 | MAPKAPK2 = 0 | MKNK1 = 0 | NTRK2 = 0 | NTRK3 = 0 | PAK4 = 0 | PBK 0 | PDGFRB 0 | PDK1 = 0

Cn1cc2cc(C(F)(F)c3nnc4ccc(-c5cnn(C6CC6)c5)nn34)c(F)cc2n1 [Bozitinib] (10 µM)
inactive: IRAK3 = 0 | JAK1 = 0 | LCK 0 | LIMK1 = 0 | LIMK2 = 0 | LMTK2 = 0 | LYN 0 | MAP2K1 = 0 | MAP2K2 = 0 | MAP4K2 = 0 | MAPK1 = 0 | MAPK4 = 0 | MAPKAPK2 = 0 | MKNK1 = 0 | NTRK2 = 0 | NTRK3 = 0 | PAK4 = 0 | PBK 0 | PDGFRB 0 | PDK1 = 0

CNC(=O)c1cc2c(Oc3ccc(NC(=S)NC(=O)Cc4ccccc4)cc3F)ccnc2cc1OC [TAS-115 mesylate] (10 µM)
inactive: IRAK3 = 0 | JAK1 = 0 | LCK 0 | LIMK1 = 0 | LIMK2 = 0 | LMTK2 = 0 | LYN 0 | MAP2K1 = 0 | MAP2K2 = 0 | MAP4K2 = 0 | MAPK1 = 0 | MAPK4 = 0 | MAPKAPK2 = 0 | MKNK1 = 0 | NTRK2 = 0 | NTRK3 = 0 | PAK4 = 0 | PBK 0 | PDGFRB 0 | PDK1 = 0

CCc1cncnc1N1CCN(Cc2nc3ccc(C(F)(F)F)cc3[nH]2)CC1 (10 µM)
inactive: IRAK3 = 0 | JAK1 = 0 | LCK 0 | LIMK1 = 0 | LIMK2 = 0 | LMTK2 = 0 | LYN 0 | MAP2K1 = 0 | MAP2K2 = 0 | MAP4K2 = 0 | MAPK1 = 0 | MAPK4 = 0 | MAPKAPK2 = 0 | MKNK1 = 0 | NTRK2 = 0 | NTRK3 = 0 | PAK4 = 0 | PBK 0 | PDGFRB 0 | PDK1 = 0

Reprinted from the results shown (two entries):
O=C(Nc1cccc(C(F)(F)F)c1)c1cccc2cc(Oc3cc(CO)ncn3)ccc12 (10 µM)
inactive: IRAK3 = 0 | JAK1 = 0 | LCK 0 | LIMK1 = 0 | LIMK2 = 0 | LMTK2 = 0 | LYN 0 | MAP2K1 = 0 | MAP2K2 = 0 | MAP4K2 = 0 | MAPK1 = 0 | MAPK4 = 0 | MAPKAPK2 = 0 | MKNK1 = 0 | NTRK2 = 0 | NTRK3 = 0 | PAK4 = 0 | PBK 0 | PDGFRB 0 | PDK1 = 0

O=C1NC(=O)/C(=C/c2ccc3nccc(-c4ccncc4)c3c2)S1 (10 µM)
inactive: IRAK3 = 0 | JAK1 = 0 | LCK 0 | LIMK1 = 0 | LIMK2 = 0 | LMTK2 = 0 | LYN 0 | MAP2K1 = 0 | MAP2K2 = 0 | MAP4K2 = 0 | MAPK1 = 0 | MAPK4 = 0 | MAPKAPK2 = 0 | MKNK1 = 0 | NTRK2 = 0 | NTRK3 = 0 | PAK4 = 0 | PBK 0 | PDGFRB 0 | PDK1 = 0

The list continues.

Nc1nc(N)c2nc(-c3cccc(O)c3)cnc2n1 (10 µM)
inactive: IRAK3 = 0 | JAK1 = 0 | LCK 0 | LIMK1 = 0 | LIMK2 = 0 | LMTK2 = 0 | LYN 0 | MAP2K1 = 0 | MAP2K2 = 0 | MAP4K2 = 0 | MAPK1 = 0 | MAPK4 = 0 | MAPKAPK2 = 0 | MKNK1 = 0 | NTRK2 = 0 | NTRK3 = 0 | PAK4 = 0 | PBK 0 | PDGFRB 0 | PDK1 = 0

CC(C)CNc1ccnc(NCc2csc(-c3ccccc3)n2)n1 [KHS101 hydrochloride] (2.5 µM)
inactive: IRAK3 = 0 | JAK1 = 0 | LCK 0 | LIMK1 = 0 | LIMK2 = 0 | LMTK2 = 0 | LYN 0 | MAP2K1 = 0 | MAP2K2 = 0 | MAP4K2 = 0 | MAPK1 = 0 | MAPK4 = 0 | MAPKAPK2 = 0 | MKNK1 = 0 | NTRK2 = 0 | NTRK3 = 0 | PAK4 = 0 | PBK 0 | PDGFRB 0 | PDK1 = 0

O[C@@H]1CO[C@H]2[C@@H]1OC[C@H]2Oc1nc2nc(-c3ccc(-c4ccccc4)cc3)c(Cl)cc2[nH]1 (10 µM)
inactive: IRAK3 = 0 | JAK1 = 0 | LCK 0 | LIMK1 = 0 | LIMK2 = 0 | LMTK2 = 0 | LYN 0 | MAP2K1 = 0 | MAP2K2 = 0 | MAP4K2 = 0 | MAPK1 = 0 | MAPK4 = 0 | MAPKAPK2 = 0 | MKNK1 = 0 | NTRK2 = 0 | NTRK3 = 0 | PAK4 = 0 | PBK 0 | PDGFRB 0 | PDK1 = 0
